PubChem BioAssay AID602196 – INSERM – 2012

Aim: 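Knock-downs that protect lung cancer cells from cisplatin or sensitise them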
Cells: human A549 lung cancer cells
Knock-down reagent: siRNA pair against human genes
Time to read-out: 48 h transfection before cisplatin; time from cisplatin to read-out not stated
Treatment: cisplatin at a dose killing half of control-siRNA cells; exact dose and duration not given
Read-out: 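Cisplatin cell death as a shift from the 50% death seen with control siRNA; siRNAs toxic or growth-blocking alone scored 0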
Direction: two-siRNA summed score (-2 to +2): higher = both siRNAs protect from cisplatin killing; -2 means both sensitise; mean protection from cisplatin (shift in death): higher = protection from cisplatin killing
Rule for the call: 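siRNAs harmful alone (LDH or WST-1) get 0; others get +1 for less and -1 for more cisplatin killing; genes are active when the two siRNAs give the same sign, summing to ±2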
Meaning of the calls: active = both siRNAs shift cisplatin killing the same way; inactive = no consistent shift, or siRNA harmful alone
Here is a random part of about 23,000 deposited reagents. In the full data, 455 (2%) are marked active. 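Active includes both protection and sensitisation; some change values fall well beyond the stated -50 to +50 range.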 Unmarked entries are inactive. Not all columns of the deposit are shown. Not given: the amount of reagent.

no.	gene symbol	PubChem SID	two-siRNA summed score (-2 to +2)	mean protection from cisplatin (shift in death) (%)
1	LOC440362	SID131517912	0	15.4
2	ZNF540 (GeneID 163255)	SID131521020	1	11.9
3	LPGAT1 (GeneID 9926)	SID131519812	1	7.6
4	SPP1 (GeneID 6696)	SID131508279	0	0.9
5	GRINA (GeneID 2907)	SID131519485	1	5.8
6	FKBP1C (GeneID 642489)	SID131507089	0	-0.6
7	ZCWPW2 (GeneID 152098)	SID131520534	1	10.2
8	SERPING1 (GeneID 710)	SID131519612	1	6.6
9	KLHL30 (GeneID 377007)	SID131507497	0	-0.1
10	INHBB (GeneID 3625)	SID131502828	0	-26.6
11	GSTT2 (GeneID 2953)	SID131518975	1	-0.4
12	SYT15 (GeneID 83849)	SID131504076	0	-6.6
13	TNIP3 (GeneID 79931)	SID131513986	0	7.3
14	LOC388284	SID131523214	2 (active)	27.1
15	ADAM17 (GeneID 6868)	SID131508007	0	0.5
16	ANXA3 (GeneID 306)	SID131518628	0	22.8
17	GOLGB1 (GeneID 2804)	SID131501428	-1	-9.8
18	NUBP1 (GeneID 4682)	SID131510343	0	3.2
19	GPATCH11 (GeneID 253635)	SID131522509	1	19.3
20	LOC388739	SID131506201	0	-1.9
21	LOC399866	SID131519129	1	2.8
22	LINC01164 (GeneID 399827)	SID131518353	0	18.6
23	LOC440784	SID131520102	1	8.7
24	CBX4 (GeneID 8535)	SID131517244	0	12.8
25	RAET1E (GeneID 135250)	SID131506286	0	-1.7
26	RHPN2 (GeneID 85415)	SID131513176	0	6.3
27	ENOX2 (GeneID 10495)	SID131514124	0	7.4
28	FOXN4 (GeneID 121643)	SID131517184	0	12.6
29	GABRB1 (GeneID 2560)	SID131512500	0	5.5
30	AFM (GeneID 173)	SID131510675	0	3.5
31	ACRBP (GeneID 84519)	SID131507121	0	-0.5
32	CLDN6 (GeneID 9074)	SID131520012	1	8.3
33	LSM4 (GeneID 25804)	SID131509738	0	2.4
34	ZNF667 (GeneID 63934)	SID131517148	0	12.5
35	LRRC70 (GeneID 100130733)	SID131507610	0	0.1
36	BUB1 (GeneID 699)	SID131512954	0	6
37	LOC440623	SID131522132	1	16.4
38	KLF17 (GeneID 128209)	SID131514724	0	8.2
39	LOC391701	SID131502181	-1	-4.6
40	CD28 (GeneID 940)	SID131514900	0	8.4
41	LOC392226 (GeneID 392226)	SID131508096	0	0.6
42	HRH4 (GeneID 59340)	SID131510023	0	2.8
43	FAM47A (GeneID 158724)	SID131500925	-1	-14.1
44	PKP1 (GeneID 5317)	SID131503243	0	-11.7
45	RTF2 (GeneID 51507)	SID131511923	0	4.9
46	LOC400707 (retired record) (GeneID 400707)	SID131513371	0	6.5
47	UBE2Q1 (GeneID 55585)	SID131502626	-1	0.2
48	LHFPL2 (GeneID 10184)	SID131520579	1	10.4
49	GEN1 (GeneID 348654)	SID131508344	0	0.9
50	MAFA (GeneID 389692)	SID131505572	0	-2.9
51	SLC6A12 (GeneID 6539)	SID131507720	0	0.2
52	LOC441188	SID131515174	0	8.8
53	RTP5 (GeneID 285093)	SID131513713	0	6.9
54	TOX (GeneID 9760)	SID131515250	0	8.9
55	ALPL (GeneID 249)	SID131520151	1	8.9
56	LOC389305	SID131518884	0	37.4
57	POP7 (GeneID 10248)	SID131517400	0	13.3

As entered above:
For “two-siRNA summed score (-2 to +2)”, GEN1 (GeneID 348654) [SID131508344] shows 0
Value of TNIP3 (GeneID 79931) [SID131513986] under “two-siRNA summed score (-2 to +2)”: 0
Under “mean protection from cisplatin (shift in death) (%)”, SPP1 (GeneID 6696) [SID131508279] has 0.9
Under “two-siRNA summed score (-2 to +2)”, GSTT2 (GeneID 2953) [SID131518975] has 1
Result of GRINA (GeneID 2907) [SID131519485] in “mean protection from cisplatin (shift in death) (%)”: 5.8
Under “two-siRNA summed score (-2 to +2)”, ZNF667 (GeneID 63934) [SID131517148] is entered as 0
